In publication PMC12523770:
Results are given in words; binding and its absence hold for the method and conditions named. Binding seen in cells or lysates may run through a third protein.

By UniProt entry, the sequences of proteins in these tests, tags left out.
UniProt P22366: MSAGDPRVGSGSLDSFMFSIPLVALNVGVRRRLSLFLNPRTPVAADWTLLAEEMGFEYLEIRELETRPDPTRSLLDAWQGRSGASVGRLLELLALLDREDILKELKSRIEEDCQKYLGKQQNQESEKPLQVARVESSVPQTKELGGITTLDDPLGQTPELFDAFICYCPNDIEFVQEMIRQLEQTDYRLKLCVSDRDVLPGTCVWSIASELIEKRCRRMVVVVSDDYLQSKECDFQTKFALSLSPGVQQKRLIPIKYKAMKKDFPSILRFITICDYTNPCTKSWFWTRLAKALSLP

Key:
[1] = target: MyD88 (myeloid differentiation primary response 88), endogenous in mouse bone marrow-derived macrophages (mouse (endogenous in BMDMs)) (UniProt P22366); assay: cross-linking; TLR3-/- BMDMs stimulated with 1 µg/mL poly(I:C); cleared freeze-thaw lysate with 2 mM DSS, 2 h, room temperature; SDS-PAGE, anti-MyD88 blot
[2] = target: MyD88 (myeloid differentiation primary response 88), endogenous in mouse bone marrow-derived macrophages (mouse (endogenous in BMDMs)) (UniProt P22366); assay: cross-linking; TRIF-deficient BMDMs stimulated with 1 µg/mL poly(I:C), 0 and 2 h; cleared freeze-thaw lysate with 2 mM DSS, 2 h, room temperature; SDS-PAGE, anti-MyD88 blot

MyD88 (myeloid differentiation primary response 88), endogenous in mouse bone marrow-derived macrophages (from UniProt P22366 1-296)
binding [1]: no binding (condition: in TLR3-/- BMDMs)
binding [2]: no binding (condition: in TRIF-deficient BMDMs)
